In PMC4444329, “Disabling Mitochondrial Peroxide Metabolism via Combinatorial Targeting of Peroxiredoxin 3 as an Effective Therapeutic Approach for Malignant Mesothelioma” (PLoS ONE, 2015):
These are yes or no findings as the source states them, for the method shown. For part of these data: In cells and extracts the contact can be indirect. Some results given as binding are weak or reduced against the parent protein; the word gives no strength. For part of these data: Where a sequence is shown, tags or fusion partners need not be part of it.

How the values were obtained:
[1] = target: FLAG-tagged human PRX3, wild type (human) (UniProt P30048); assay: cross-linking; cells treated with TS (5 μM, with or without gentian violet pre-incubation; also tumors of mice given 50 mg/kg TS); lysates on reducing SDS-PAGE, immunoblot for PRX3; 35-40 kDa band immunoprecipitated and tryptic peptides read by LC-MS/MS
[2] = target: Peroxiredoxin 3 (PRX3), endogenous in human mesothelioma and mesothelial cells (human (endogenous in HM cells)) (UniProt P30048); assay: as above
[3] = target: Peroxiredoxin 3 (PRX3), endogenous in human mesothelioma and mesothelial cells (human (endogenous in HM cells)) (UniProt P30048); assay: non-reducing SDS-PAGE and immunoblot (disulfide-bonded dimers); HM cells treated with TS, GV or TS + GV for 18 hr; extracts on non-reducing SDS-PAGE, PRX3 monomers (~23 kD) and disulfide-bonded dimers (~46 kD) by immunoblot

binding [1] | binding [2] | binding [3] | Binder
binds |  |  | FLAG-tagged human PRX3, wild type (enzyme, UniProt P30048 62-256) APAVTQHAPYFKGTAVVNGEFKDLSLDDFKGKYLVLFFYPLDFTFVCPTEIVAFSDKANEFHDVNCEVVAVSVDSHFSHLAWINTPRKNGGLGHMNIALLSDLTKQISRDYGVLLEGSGLALRGLFIIDPNGVIKHLSVNDLPVGRSVEETLRLVKAFQYVETHGEVCPANWTPDSPTIKPSPAASKEYFQKVNQ
 | binds | binds | Peroxiredoxin 3 (PRX3), endogenous in human mesothelioma and mesothelial cells (enzyme, UniProt P30048 62-256) APAVTQHAPYFKGTAVVNGEFKDLSLDDFKGKYLVLFFYPLDFTFVCPTEIVAFSDKANEFHDVNCEVVAVSVDSHFSHLAWINTPRKNGGLGHMNIALLSDLTKQISRDYGVLLEGSGLALRGLFIIDPNGVIKHLSVNDLPVGRSVEETLRLVKAFQYVETHGEVCPANWTPDSPTIKPSPAASKEYFQKVNQ
